Test results taken from PMC6770448.

Tests used:
Assay in all cases: two-hybrid; Matchmaker two-hybrid system (Takara); TCP-BD and ATHB-AD; dilutions of yeast spotted on medium with or without histidine
[1] = target: T1, TCP5 fused to BD (yeast two-hybrid) (Arabidopsis thaliana) (UniProt Q9FME3)
T1 sequence: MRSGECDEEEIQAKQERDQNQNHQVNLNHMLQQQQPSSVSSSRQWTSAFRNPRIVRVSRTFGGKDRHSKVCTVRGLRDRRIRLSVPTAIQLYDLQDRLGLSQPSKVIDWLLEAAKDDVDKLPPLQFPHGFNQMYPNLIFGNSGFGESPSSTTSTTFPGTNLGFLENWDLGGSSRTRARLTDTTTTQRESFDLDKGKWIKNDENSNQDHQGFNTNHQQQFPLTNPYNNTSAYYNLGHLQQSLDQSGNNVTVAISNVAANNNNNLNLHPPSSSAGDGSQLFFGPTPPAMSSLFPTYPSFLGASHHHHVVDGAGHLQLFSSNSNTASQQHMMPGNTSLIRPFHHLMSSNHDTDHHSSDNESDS

[2] = target: T2, TCP17 fused to BD (yeast two-hybrid) (Arabidopsis thaliana) (UniProt Q9LEZ9)
T2 sequence: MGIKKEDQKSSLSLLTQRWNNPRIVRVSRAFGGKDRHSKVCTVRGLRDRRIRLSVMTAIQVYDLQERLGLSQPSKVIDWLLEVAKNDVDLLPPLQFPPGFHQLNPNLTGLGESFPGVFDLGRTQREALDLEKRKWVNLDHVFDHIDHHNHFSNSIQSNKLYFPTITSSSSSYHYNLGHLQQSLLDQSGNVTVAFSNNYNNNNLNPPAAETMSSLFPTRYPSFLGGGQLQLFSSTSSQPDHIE

[3] = target: T3, TCP13 fused to BD (yeast two-hybrid) (Arabidopsis thaliana) (UniProt Q9S7W5)
T3 sequence: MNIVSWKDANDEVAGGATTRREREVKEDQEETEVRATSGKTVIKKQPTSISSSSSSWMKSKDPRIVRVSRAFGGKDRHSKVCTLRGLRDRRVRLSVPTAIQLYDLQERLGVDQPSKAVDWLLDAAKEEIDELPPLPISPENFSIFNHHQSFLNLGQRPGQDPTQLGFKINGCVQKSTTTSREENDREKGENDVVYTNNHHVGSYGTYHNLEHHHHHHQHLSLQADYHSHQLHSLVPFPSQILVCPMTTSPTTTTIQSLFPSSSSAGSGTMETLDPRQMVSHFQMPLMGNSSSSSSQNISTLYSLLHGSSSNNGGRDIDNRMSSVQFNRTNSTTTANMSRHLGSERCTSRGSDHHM

binding [1]: binds
binding [2]: binds
binding [3]: binds
Substance: ATHB2 C-terminal region fused to AD (yeast two-hybrid) (Arabidopsis thaliana) (domain or fragment)

Results are given in words; binding and its absence hold for the method and conditions named. Binding can be weak; no strength is given. Tags and fused reporters may be left off the sequences shown.
